Assay results: patent US20100056475 (published 2010)

Test: general procedure: hybrid (solid and solution phase) peptide synthesis; DCC/HOBt; DIC or TBTU or HATU and HOBt with DIPEA
Conditions: TFA salt or HCl salt

Substance | step yield (late stage modification step) [%] | conjugation yield (conjugation step) [%]
6^A,6^D-dideoxy-6^A,6^D-di[Gly-Lys(Boc)-Lys(Boc)-Lys(Boc)-Boc]amino-β-cyclodextrin | 66 | 
6^A,6^D-dideoxy-6^A,6^D-di(Gly-Arg-Arg-Arg-Gly-Lys-Lys-Lys-NH2)amino-β-cyclodextrin (GRRRGKKK; amidated, on beta-cyclodextrin; printed: Gly-Arg-Arg-Arg-Gly-Lys-Lys-Lys-) |  | 21
